Results on 108 sequences are retold here after PubChem BioAssay AID1508600 (Functional Genomics Laboratory (NCATS/FGL), 2020).

The campaign covered roughly 53,000 sequences. About 3,700 (7%) were called active.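 Rule for the calls: active = gene knockdowns whose robust z-score for IL-1 alpha signal is at least 2 or at most -2, so actives lie on both sides; inactive = the rest.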 The list shows a part of the results.

This test is described as follows: Components of the Cytosolic LPS Sensing Pathway: Gene Identification via Genome-wide siRNA Screen.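 Note: robust z of the log signal after scaling to non-targeting control siRNA wells of the plate.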 The conditions noted are these: RAW264.7 macrophages, IL-1a HTRF, actives lie on both sides, screened at 100 nM (by protocol), cells primed 5 h with Pam3CSK4 first. The procedure, abridged:
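RAW264.7 mouse macrophages reverse-transfected with single siRNAs (100 nM final) for 48h, primed with Pam3CSK4 for 5 hours, then transfected with LipidA for 24 hour. Supernatant IL-1a read by HTRF; values normalized to negative-control median, log-transformed robust z-scores.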
Consider GCUGCAUGCGUAAAUAGAATT against Slc22a19, for which the z-score is inactive: -0.38.

For GGACCACAAAUAGCAAAAATT against Zfp74, the z-score was inactive: -0.987. The result for GGACCAUGAGGGAAUACAGTT against Bdkrb2 reads active: 4.91; that for GGGUUUGUUAAGUCCUGUGTT against Gsdmc, active: -2.09; that for GGAGACUGCUUCUAAAGAUTT against Fam114a2, inactive: -0.416. Then GGCAUUCAUCUAGUCCUGCTT against Bst1, with inactive: -1.69; and CGCAUGCUUCGGUACAUCATT against Macroh2a1, with inactive: 1.4. For GCUACGGCGUGGUUUAUGATT against Stk35, the z-score is inactive: 0.017. With CCCAAUAUGUUAGACCCUGTT against Slc16a8, the z-score was inactive: 0.448. Then GGGUUUUUGUGUACAAUGATT against Ttll6, with inactive: -0.0864. As for “CGGGAGAUGCGUUUGUUUUTT against 6030458C11Rik”, the z-score is inactive: 1.52. The result for GGAAGCUGCACGGCAACUUTT against Btn2a2 reads inactive: -0.132; that for CCUUCGAACUCGAAAAAUUTT against Olfr722, inactive: 0.338; that for GGCUUUCAAGAUUCAGUGATT against Gsta1, inactive: 0.103. Then CCUCAUGGCUUUGGCCAUUTT against Olfr1133, with inactive: 0.66; and GGAUUUAGGUUUUGGUUUUTT against Ghitm, with inactive: 0.412. Then GGAUUGUCUUCCUACUGGGTT against Zdhhc4, with inactive: 0.16; and GGUGAGCGGCCAGAAGUUUTT against Elk1, with inactive: 0.335. Turning to CCGUUACAAUCAGUUAUUATT against Ccdc88a, the z-score is inactive: 0.316. The result for GGAAAUCCUUGACUACAUUTT against Cyp2b19 reads inactive: 0.31. The result for GGCUUCUGGACCUCAAACATT against Zfp92 reads active: -2.14; that for GGUCAUUAUUGGAUGCAUCTT against Mga, inactive: 0.474; that for GGCGAAAGCCUUGAGGUUGTT against Tra2a, inactive: 0.995. Regarding GGCGAACAUGCACUUUCACTT against Gramd3, the z-score was inactive: -1.28. The result for GGAGCUCUUUGAGUACAUCTT against Ift46 reads active: 2.48. For the sequence GGACUAGCAAGGCAAGUGATT against Dnase2b, the z-score was inactive: 1.32. Then GGAUAAGUGGUCUGCACUATT against Ube2c, with inactive: -0.412; and GGAGGUGGUGUUUAUACCATT against Scrn2, with inactive: 0.728; and GGAAAAUCUAUAGGUAGAGTT against Nuak1, with inactive: 1.26. Then GGAUUUAAUACCCAGCAGCTT against Nup54, with inactive: 0.247; and GGAUCAUUCGGACAAAAGUTT against Pax5, with inactive: -1.31; and GGUGUCCCUUAAUGUGUCCTT against Heg1, with inactive: 0.671. Then GGUCACACAUUUUUUGUGATT against F8, with inactive: 0.712. Consider CCUACAGAAUAGAAAAUUCTT against Elmod2, for which the z-score was inactive: -0.161. Then GGUGCUGAUCUACAGGAUGTT against Lrfn2, with inactive: 0.721; and “CCCUUUCCAGCCAGAUCAATT against 1700016K19Rik”, with inactive: 1.58. The result for “CCCUAGUGCAGUGAUAACUTT against 1700016D06Rik” reads inactive: 0.938; that for GCAUCAAGAGAUCUGAUUATT against Cdt1, inactive: -1.12; that for GGUGAGGAGGAAAUCCUGCTT against Rdh10, inactive: -1.21. Then GGGCACCUAUUCAGAUACCTT against Map2, with inactive: 0.685. Turning to GCUUUGUCCGCACAUUAUCTT against H3c15, the z-score was inactive: -0.1. Then GGAAUUCCUCUUCAACAUGTT against Hoxd9, with inactive: -0.295.

Regarding GGAUGUUUUAAUCUAAAGCTT against Ccdc3, the z-score was inactive: -0.106. The result for CGUAUCUUAUAUCAGGAAATT against Trem1 reads inactive: 0.513. Then GGCCAAUGACAGAACCUAUTT against Atp8b3, with inactive: -0.19; and GGCUUUAAUGUGUCAGUACTT against Slc25a5, with inactive: -0.228; and GGAAUUUGUGACCAACUAUTT against Rbm4b, with inactive: 1.07. Regarding CCUCCAGUGGUAACAUUAGTT against Olfr301, the z-score is inactive: 0.944. Then GGCGAGAAGGAAAUGUACATT against Arpc3, with active: 2.62; and CCACGUUUACACCAACGUGTT against Fads6, with inactive: 0.357.

Regarding GGCACUCAAUGUCUUCUAUTT against Nbeal1, the z-score is inactive: 0.516. On to GGAUUGAGAAUAUCUGAGUTT against H2-T3, for which the z-score is inactive: -0.934. Then GGGAGUCUAUGCUAUGGGUTT against Ddx19b, with inactive: -0.38; and GGCCAAGUUCCAUAUCACCTT against Eefsec, with inactive: 0.46; and GGAAGUUCCGUCGAUUUGATT against Cyp8b1, with inactive: -0.604.

For the sequence GCACAAUGUCCCAUCGUGGTT against Rps5, the z-score was inactive: -0.6. Then CCUUCUCUCAUAACUCAUCTT against Rbak, with inactive: 1.23. Then GGUUUUUCUCUCUCUCAUUTT against Epas1, with inactive: 0.166; and GCCAUGCUAAUCAAGACGGTT against Gtf2ird2, with inactive: -0.99; and GCAAAAGUUCCAAAAAUCCTT against Cryba1, with inactive: 0.0525. Then CGGAAUGGUUCUUUCACAGTT against Adamts13, with inactive: -0.777; and GGAACAUCAAUCCAAAUCCTT against Fam122c, with inactive: 1.33; and GCUUCUGCUAGAUGAAAAUTT against Rgs7, with inactive: -0.127. Take GGGUGUUCUACAGAAAUGATT against Orc5: the z-score is inactive: -1.98. GGAGUUCGAGAAAGACAAATT against Eif4g3: the z-score is inactive: 0.938. The result for GGAGUGAUUCAGUGAAAACTT against Iqcf3 reads inactive: -0.289. Then GGCGAUGACAAGGAUCCUUTT against Cyb5b, with inactive: 0.2; and CCUGAUUUAUGCAGAAUUATT against Ube2d3, with inactive: 0.775. Then GGCUGUCGAGGAUCUAAACTT against Cyp4a14, with inactive: 0.702; and GGCACACAAGAUUCUAGUGTT against Git2, with inactive: 0.364; and GCAUGUUAAGCCUUGUAUATT against Tnpo1, with inactive: -1.67. For GGAUAGCAAAUUCAUCACATT against Ptprg, the z-score was inactive: -0.214. GGAAUUCACUUCGAGGCAUTT against Npas2: the z-score was inactive: 0.178. In the case of GGCCAAUUAAUUCUUACAGTT against Srl, the z-score is inactive: 1.57. GGAAGAUAUGAAGGGCUCATT against Mb: the z-score was active: -2.18. Then GGCUGUCUGCUGAAAUGAUTT against Zmym6, with inactive: 0.754; and CGACAGCACUAUGCUGGGUTT against Psmb4, with inactive: -1.49. Take GCUAGACUCCUACAGCAAUTT against Prss8: the z-score is inactive: 0.802. The result for GGUUCAGCUUUUCAUCAGUTT against Cops3 reads inactive: 1.37; that for GCAGUGUAUAGGUGUACAATT against Krt2, active: 3; that for GGUGCUACAAUUCUGUGCGTT against Plaat5, inactive: -0.127.

As for CGCUCUUUCAGCACAAGAATT against Zfp422, the z-score was inactive: -1.57.

As to GAACGUGAGGCACAAAUGGTT against Rhog, the z-score was inactive: 0.565. The result for GCUAGGAGCUAGGAAUCCGTT against Pdzd3 reads inactive: -0.682; that for CGGAAAUCGUUGCUAAUCUTT against Fcgrt, inactive: 0.0477. The result for GGAAGAAAUAUACAAAGACTT against Paf1 reads inactive: 0.517. Then GGCUGUUAUACACUAUCUGTT against Tirap, with active: -2.71; and GCAUUACUUUAAGCCAUAUTT against Rbl1, with active: 3.57. With GGAUUUCAUUAUCCUGUUUTT against Zfp608, the z-score was inactive: -1.19. Then CCGAGUCAUUCAGAGAACGTT against Plekha5, with inactive: 0.978; and GCCAGGUACAUUCUUUGUGTT against Cd27, with inactive: -0.768. Regarding CCAUGUGGCUGAGAGAUUGTT against Vgll2, the z-score is inactive: 1.12. Then GCCAUGCCUUAAUCUUGGUTT against Cd300lf, with inactive: 0.0466; and GGCAGACGAAUGGUGCAAATT against Dok5, with inactive: 0.958. The result for CCAAAUAAUUACUAGGCCUTT against Prdx2 reads inactive: -0.271; that for GGGAGUUUUUAUAUGGUUUTT against Ybey, inactive: 1.27. For GGAUCAGUACCCGUAUUUGTT against Plin2, the z-score is active: -2.38. Then GGGUGAAAUCUAUCUCCAUTT against Agfg1, with inactive: -1.85; and GGGAUAUGCAGAGAAUAGATT against Tmco5, with inactive: 1.3; and GGAAGAUUCUUACCUCUGATT against Rngtt, with inactive: -1.12.

GGUCUUACUCUUCAUAAUATT against Olfr1301: the z-score was inactive: -1.39. The result for GGGACAAAGUAAUAAAGUGTT against Lce1a2 reads inactive: -0.335. The result for GGUACAGGUUGAUGCACUUTT against Ccdc120 reads inactive: 0.399; that for GGUCUUCCUAUCUAGAACCTT against Dym, inactive: -0.241; that for GGAUCAUUCCUUUGGUUAGTT against Fabp5, inactive: -1.34. Then GGUUGACUAUACUGAAAAGTT against Prrc2a, with inactive: -0.606; and GGAGCUACUGUACCUUGCUTT against Ncapg2, with inactive: -1.29.

As for GGACAAGUGCCUCUCACCATT against Glis2, the z-score was active: -3.25.
